Where two headings read alike, the source gives them in different places.
Columns and labels:
lymphocytes = assay: cells; conditions: Lymphocyte, read-out: IC50, allogeneic cell induced lymphocyte proliferation
[1] = system: Peripheral blood mononuclear cells (PBMCs); conditions: ConA induced PBMC proliferation
[2] = Phase I and II studies in patients with advanced cancer; assay type: in vivo, human; conditions: oral
[3] = system: Peripheral blood mononuclear cells (PBMCs); assay: cells; conditions: Homo sapiens, PBMC
[4] = system: IL-2 production by CD3+ T cells; conditions: at greater concentrations (above 0.5 mM as printed)
[5] = system: IFN-gamma production by CD3+ T cells; conditions: at greater concentrations (above 0.5 mM as printed)
[6] = system: TNF-alpha production by CD3+ T cells; assay: cells; conditions: Homo sapiens, T-cell, 6 h, read-out: IC50, TNF-alpha production by CD3+ T cells

## CO[C@@H]1[C@H](N(C)C(=O)c2ccccc2)C[C@H]2O[C@]1(C)n1c3ccccc3c3c4c(c5c6ccccc6n2c5c31)C(=O)NC4 [Compound I, midostaurin]
lymphocytes
  IC50: 250 to 400 nM
[1]
  inhibitory effects in combination with CsA: additive
[2]
  safety / toxicity: safe with minimal toxicity
[3]; read-out: IC50, ConA induced PBMC proliferation, Compound I alone
  IC50: ~400 nM
[3]; read-out: IC50, ConA induced PBMC proliferation, with 50 ng/ml CsA
  IC50: 60 nM
[3]; read-out: IC50, lectin induced lymphocyte proliferation, Example 5, one range stated for lectin and allogeneic cell induced proliferation
  IC50: 250 to 400 nM
[4]
  IC50, IL-2 production by CD3+ T cells: low micromolar range
[5]
  IC50, IFN-gamma production by CD3+ T cells: low micromolar range
[6]
  IC50: 500 nM
